{"source": "PubChem BioAssay AID686938 (Drosophila RNAi Screening Center, 2013)", "assay": "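Looking for CRAC channel components and the factors controlling them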 (primary screen)", "cell system": "Drosophila S2R+ cells", "reagents": "long dsRNA against Drosophila genes, about 0.25 µg dsRNA per well, roughly 10,000 cells", "timing": "5 days of knock-down before the calcium assay", "treatment": "thapsigargin (SERCA pump blocker) to empty calcium stores; entry signal taken 4 min after adding it", "measured": "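Per-well fluo-4 fluorescence in two replicates, unnormalised, measured in resting cells and 4 min after store depletion by the SERCA blocker thapsigargin; ratio of the two present in few wells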", "scale": "calcium entry signal: higher = stronger calcium signal after store depletion; resting calcium signal: higher = higher resting calcium signal", "units": "calcium entry signal in fluorescence units; resting calcium signal in fluorescence units", "rule for the call": "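Called when the plate z-score of the entry-to-rest ratio, mean of duplicates, falls below −3; wells with low overall dye signal (Fmax z below −2) or more than five off-targets excluded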", "meaning of the calls": "active = strongly reduced calcium entry; inactive = no strong reduction", "note": "The deposit covers about 23,000 reagents; this is an unselected part of those with a known target gene and a result. Over the whole deposit, 75 (0.33%) got an active call. 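Raw plate signals without normalisation; calls rest on plate z-scores that were not deposited; ratio present for only 364 wells.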 Entries without a mark were called inactive. Reagents against one gene are numbered here. A plus sign joins genes that one reagent is predicted to hit. No sequences are given here. Not given: the dose of the treatment."}
{"target": "CG5265", "reagent no.": 1, "calcium entry signal, replicate 1": 2.99e7, "calcium entry signal, replicate 2": 5.67e7, "resting calcium signal, replicate 1": 1.42e7, "resting calcium signal, replicate 2": 6.87e7}
{"target": "Vps52", "reagent no.": 1, "calcium entry signal, replicate 1": 2.09e7, "calcium entry signal, replicate 2": 2.18e7, "resting calcium signal, replicate 1": 1.17e7, "resting calcium signal, replicate 2": 1.11e7}
{"target": "Cyp4e3", "reagent no.": 1, "calcium entry signal, replicate 1": 3.98e7, "calcium entry signal, replicate 2": 5.83e7, "resting calcium signal, replicate 1": 1.91e7, "resting calcium signal, replicate 2": 2.43e7}
{"target": "l(2)05714", "reagent no.": 1, "calcium entry signal, replicate 1": 3.62e7, "resting calcium signal, replicate 1": 1.79e7}
{"target": "l(2)k05819", "reagent no.": 1, "calcium entry signal, replicate 1": 3.73e7, "resting calcium signal, replicate 1": 2.26e7}
{"target": "CG32832", "reagent no.": 1, "calcium entry signal, replicate 1": 2.61e7, "calcium entry signal, replicate 2": 3.89e7, "resting calcium signal, replicate 1": 1.30e7, "resting calcium signal, replicate 2": 1.80e7}
{"target": "snoRNA:U31:54Ec + snoRNA:snR38:54Eb + snoRNA:U27:54Eb + 8 more", "reagent no.": 1, "calcium entry signal, replicate 1": 3.58e7, "calcium entry signal, replicate 2": 4.87e7, "resting calcium signal, replicate 1": 1.75e7, "resting calcium signal, replicate 2": 2.41e7}
{"target": "CG42809", "reagent no.": 1, "calcium entry signal, replicate 1": 3.91e7, "calcium entry signal, replicate 2": 2.81e7, "resting calcium signal, replicate 1": 1.62e7, "resting calcium signal, replicate 2": 1.27e7}
{"target": "CG14947", "reagent no.": 1, "calcium entry signal, replicate 1": 3.44e7, "calcium entry signal, replicate 2": 2.24e7, "resting calcium signal, replicate 1": 1.47e7, "resting calcium signal, replicate 2": 1.05e7}
{"target": "IFT54", "reagent no.": 1, "calcium entry signal, replicate 1": 2.78e7, "calcium entry signal, replicate 2": 3.90e7, "resting calcium signal, replicate 1": 1.41e7, "resting calcium signal, replicate 2": 5.05e7}
{"target": "CG11000", "reagent no.": 1, "calcium entry signal, replicate 1": 3.66e7, "calcium entry signal, replicate 2": 4.67e7, "resting calcium signal, replicate 1": 1.82e7, "resting calcium signal, replicate 2": 2.17e7}
{"target": "CG11000", "reagent no.": 2, "calcium entry signal, replicate 1": 3.68e6, "calcium entry signal, replicate 2": 3.52e7, "resting calcium signal, replicate 1": 3.59e6, "resting calcium signal, replicate 2": 1.58e7}
{"target": "nop5", "reagent no.": 1, "calcium entry signal, replicate 1": 2.11e7, "calcium entry signal, replicate 2": 1.73e7, "resting calcium signal, replicate 1": 1.25e7, "resting calcium signal, replicate 2": 1.10e7}
{"target": "CG5024", "reagent no.": 1, "calcium entry signal, replicate 1": 3.84e7, "calcium entry signal, replicate 2": 5.08e7, "resting calcium signal, replicate 1": 1.85e7, "resting calcium signal, replicate 2": 2.06e7}

Looked up above:
Under “resting calcium signal, replicate 1”, l(2)k05819 reads 2.26e7
IFT54, calcium entry signal, replicate 2 → 3.90e7
